These are yes or no findings as the source states them, for the method shown. One block for each binder: values may come before it.
What was measured:
[1] = target: T1, human B7H4, full length, on cells (human, UniProt Q7Z7D3 25-282); assay: flow cytometry, HEK cells transiently transfected with human B7H4 (panel B7H4), 0.014-30 µg/ml, MFI PE
T1 construct: On transiently transfected HEK cells or on B7H4-expressing human tumor cell lines; also called VTCN1
T1 sequence: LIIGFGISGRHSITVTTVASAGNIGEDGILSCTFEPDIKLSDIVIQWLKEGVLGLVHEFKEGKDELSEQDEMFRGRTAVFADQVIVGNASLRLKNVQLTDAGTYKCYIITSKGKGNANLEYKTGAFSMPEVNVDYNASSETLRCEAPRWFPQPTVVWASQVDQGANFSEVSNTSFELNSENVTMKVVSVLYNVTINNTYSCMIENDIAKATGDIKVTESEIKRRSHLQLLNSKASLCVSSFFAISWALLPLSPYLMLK

[2] = target: T1, human B7H4, full length, on cells; assay: flow cytometry on HCC1954 cells (lower left and lower right panels), 0.014-30 µg/ml, MFI PE
[3] = target: T1, human B7H4, full length, on cells; assay: flow cytometry, MDA-MB-468 and HCC1954 cells
[4] = target: T2, B7H4-IgV/B7H3-IgC; assay: flow cytometry, HEK cells transiently transfected with B7H4-IgV/B7H3-IgC (panel B7H4-IgV/B7H3-IgC), 0.014-30 µg/ml, MFI PE
T2 sequence (full length chimeric protein on cells): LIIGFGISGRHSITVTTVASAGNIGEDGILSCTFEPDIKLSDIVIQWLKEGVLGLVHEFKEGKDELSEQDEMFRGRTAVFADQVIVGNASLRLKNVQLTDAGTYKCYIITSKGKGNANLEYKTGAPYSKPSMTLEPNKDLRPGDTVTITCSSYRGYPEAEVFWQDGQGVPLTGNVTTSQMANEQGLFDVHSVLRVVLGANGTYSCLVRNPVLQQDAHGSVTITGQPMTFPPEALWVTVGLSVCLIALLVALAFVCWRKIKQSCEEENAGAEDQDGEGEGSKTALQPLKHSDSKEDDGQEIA

[5] = target: B7H3-IgV/B7H4-IgC; assay: flow cytometry, HEK cells transiently transfected with B7H3-IgV/B7H4-IgC (panel B7H3-IgV/B7H4-IgC), 0.014-30 µg/ml, MFI PE
[6] = target: T1, human B7H4, full length, on cells; assay: flow cytometry, MCF-7 and MDA-MB-468 cells
[7] = target: T1, human B7H4, full length, on cells; assay: flow cytometry on MCF-7 cells (B7H4-expressing), MFI PE

- binding [1]: no binding (tested: 30 µg/ml)
- binding [2]: no binding (tested: 30 µg/ml)
- binding [3]: no binding
- binding [4]: no binding (tested: 30 µg/ml)
- binding [5]: no binding (tested: 30 µg/ml)
B1: IgG1-b12-K409R (antibody, V domains shown)
VH: QVQLVQSGAEVKKPGASVKVSCQASGYRFSNFVIHWVRQAPGQRFEWMGWINPYNGNKEFSAKFQDRVTFTADTSANTAYMELRSLRSADTAVYYCARVGPYSWDDSPQDNYYMDVWGKGTTVIVSS
VL: EIVLTQSPGTLSLSPGERATFSCRSSHSIRSRRVAWYQHKPGQAPRLVIHGVSNRASGISDRFSGSGSGTDFTLTITRVEPEDFALYYCQVYGASSYTFGQGTKLERKR

- binding [6]: no binding
- binding [7]: no binding (tested: 30 µg/ml)
B2: IgG1-b12 (antibody, V domains shown)
VH: B1 VH
VL: EIVLTQSPGTLSLSPGERATFSCRSSHSIRSRRVAWYQHKPGQAPRLVIHGVSNRASGISDRFSGSGSGTDFTLTITRVEPEDFALYYCQVYGASSYTFGQGTKLERK
